Assay results taken from article PMC6423145.
Results are given in words; binding and its absence hold for the method and conditions named. Binding seen in cells or lysates may run through a third protein. Some results given as binding are weak or reduced against the parent protein; the word gives no strength.

The chains behind the UniProt entries cited, without tags or fusion partners. Where a name states a change or a piece, a line headed by the entry shows the natural chain unless it says otherwise.
UniProt Q9UHP3: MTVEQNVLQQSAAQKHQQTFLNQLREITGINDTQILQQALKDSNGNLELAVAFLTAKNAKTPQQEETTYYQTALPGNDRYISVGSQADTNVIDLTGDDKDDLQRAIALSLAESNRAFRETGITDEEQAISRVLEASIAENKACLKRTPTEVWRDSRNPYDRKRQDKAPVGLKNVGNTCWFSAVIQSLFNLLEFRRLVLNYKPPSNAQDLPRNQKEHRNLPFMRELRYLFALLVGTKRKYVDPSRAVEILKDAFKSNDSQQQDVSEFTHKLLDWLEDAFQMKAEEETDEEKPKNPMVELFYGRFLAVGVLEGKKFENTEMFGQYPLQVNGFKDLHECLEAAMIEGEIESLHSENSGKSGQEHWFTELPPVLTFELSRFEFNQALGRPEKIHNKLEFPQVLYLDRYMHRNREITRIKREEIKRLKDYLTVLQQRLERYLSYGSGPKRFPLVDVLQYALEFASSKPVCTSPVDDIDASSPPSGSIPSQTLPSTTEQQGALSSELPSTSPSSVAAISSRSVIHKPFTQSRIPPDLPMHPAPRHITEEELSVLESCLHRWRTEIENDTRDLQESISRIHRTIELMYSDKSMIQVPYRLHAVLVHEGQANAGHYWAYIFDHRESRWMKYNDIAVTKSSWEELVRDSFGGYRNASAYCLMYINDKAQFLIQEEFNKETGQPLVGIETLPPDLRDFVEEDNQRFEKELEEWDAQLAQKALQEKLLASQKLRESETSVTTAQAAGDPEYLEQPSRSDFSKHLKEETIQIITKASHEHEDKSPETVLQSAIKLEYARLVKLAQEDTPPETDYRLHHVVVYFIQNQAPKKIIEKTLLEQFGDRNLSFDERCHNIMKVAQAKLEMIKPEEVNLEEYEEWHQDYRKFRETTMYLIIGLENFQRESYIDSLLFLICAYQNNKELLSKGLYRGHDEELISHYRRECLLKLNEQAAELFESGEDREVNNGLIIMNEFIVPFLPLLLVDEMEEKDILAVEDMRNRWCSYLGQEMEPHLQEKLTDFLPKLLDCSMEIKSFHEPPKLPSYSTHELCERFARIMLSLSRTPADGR

Experiments:
GST-USP25-R1049A = GST-USP25-R1049A (UniProt Q9UHP3); assay: pull-down; 10 μg of each GST fusion immobilised on Sepharose beads, incubated with 3T3-L1 adipocyte lysate (4 mg total protein in 400 μl); TNKS detected by immunoblot; only the target purified
GST-USP25 = GST-USP25 (UniProt Q9UHP3); assay: as above

- binding (GST-USP25-R1049A): no binding
- binding (GST-USP25): binds
B1: tankyrase (TNKS), endogenous in 3T3-L1 adipocytes (protein, UniProt Q6PFX9 1-1320)
chain: MAASRRSQHHHHHHQQQLQPAPGASAPPPPPPPPLSPGLAPGPTPASPTAGGLAPFASPRHGLALPEGDGSRDPPDRPRSPDPVDGAVCTVAAPAAVPAASAAVGVAPTPAGGGGGGGNNSASSASSPTSSSSSSPSSPGSSLAESPEAAGVGSTATLGAGAAGLGPGVPAVSGALRELLEACRNGDVSRVKRLVDAANVNAKDMAGRKSSPLHFAAGFGRKDVVEHLLQMGANVHARDDGGLIPLHNACSFGHAEVVSLLLCQGADPNARDNWNYTPLHEAAIKGKIDVCIVLLQHGADPNIRNTDGKSALDLADPSAKAVLTGEYKKDELLEAARSGNEEKLMALLTPLNVNCHASDGRKSTPLHLAAGYNRVRIVQLLLQHGADVHAKDKGGLVPLHNACSYGHYEVTELLLKHGACVNAMDLWQFTPLHEAASKNRVEVCSLLLSHGADPTLVNCHGKSAVDMAPTPELRERLTYEFKGHSLLQAAREADLAKVKKTLALEIINFKQPQSHETALHCAVASLHPKRKQVAELLLRKGANVNEKNKDFMTPLHVAAERAHNDVMEVLHKHGAKMNALDSLGQTALHRAALAGHLQTCRLLLSYGSDPSIISLQGFTAAQMGNEAVQQILSESTPMRTSDVDYRLLEASKAGDLETVKQLCSPQNVNCRDLEGRHSTPLHFAAGYNRVSVVEYLLHHGADVHAKDKGGLVPLHNACSYGHYEVAELLVRHGASVNVADLWKFTPLHEAAAKGKYEICKLLLKHGADPTKKNRDGNTPLDLVKEGDTDIQDLLRGDAALLDAAKKGCLARVQKLCTPENINCRDTQGRNSTPLHLAAGYNNLEVAEYLLEHGADVNAQDKGGLIPLHNAASYGHVDIAALLIKYNTCVNATDKWAFTPLHEAAQKGRTQLCALLLAHGADPTMKNQEGQTPLDLATADDIRALLIDAMPPEALPTCFKPQATVVSASLISPASTPSCLSAASSIDNLTGPLTDLAVGGASNAGDGAAGAERKEGEVAGLDMNISQFLKSLGLEHLRDIFETEQITLDVLADMGHEELKEIGINAYGHRHKLIKGVERLLGGQQGTNPYLTFHCVNQGTILLDLAPEDKEYQSVEEEMQSTIREHRDGGNAGGIFNRYNVIRIQKVVNKKLRERFCHRQKEVSEENHNHHNERMLFHGSPFINAIIHKGFDERHAYIGGMFGAGIYFAENSSKSNQYVYGIGGGTGCPTHKDRSCYICHRQMLFCRVTLGKSFLQFSTMKMAHAPPGHHSVIGRPSVNGLAYAEYVIYRGEQAYPEYLITYQIMKPEAPSQTATAAEQKT
